At least one compound was matched to its structure with a doubt left.
Test system: 4T1-Luc2 syngeneic breast cancer cells
Conditions: small molecule dissolved in DMSO
Procedure: Seven-week-old female Balb/c mice were inoculated orthotopically with 100,000 4T1-Luc2 syngeneic breast cancer cells (into the fourth mammary fat pad). After 10 days, the mice were anesthetized, tumors were surgically resected, and compositions were placed in the resection site. […] The order of surgeries avoided systematic error by dividing up the groups. Standard follow-up care (wound clips, analgesic) was provided.
For the metastatic breast cancer model, 10^5 4T1-Luc2 or 4T1 cells (in 30 μl DPBS) were inoculated orthotopically into the fourth mammary pad of mice to generate a local tumor mass. Cells were injected without any incision to expose the fat pad. Mice were randomly assigned to treatment groups, and surgery was performed 10 days after tumor inoculation. For the metastatic melanoma and lung cancer models, 10^6B16-BL6 or 5×10^5 LLC cells (in 100 μl DPBS) were inoculated subcutaneously in mice to generate a local tumor mass. Mice were randomly assigned to treatment groups, and surgery was performed when tumor volumes reached ˜600 mm^3. While mice were kept under anesthesia at 2% isoflurane, the tumor was resected, and the hydrogel was placed in the site of the resultant cavity at the time of surgery. […]
A series of compositions described above in Table 2 were evaluated in viva. […] Tumor relapse and metastasis were monitored via imaging over the course of 6 weeks. […]

Question: `Cc1ccc(-c2cc(C(F)(F)F)nn2-c2ccc(S(N)(=O)=O)cc2)cc1` [celecoxib] was tested. Which “efficacy of hydrogel with IL-15 superagonist, anti-PD-1 and the small molecule” value did it give?
Answer: provided less efficacious results

Reference: patent publication US10413612B2, “Method of treating cancer with a biomaterial and a toll-like receptor agonist” (Dana-Farber Cancer Institute, Inc., priority 2016, dated 2019)
